Consider 62 compounds from PubChem BioAssay AID445 (National Center for Advancing Translational Sciences (NCATS), 2006).

In general, AC50 refers to the concentration at which the activity in the assay is half-maximal.

A short description of this assay: IkB Signaling. Particulars: ABC-DLBCL IkBa-CBG/CBR dual luciferase ratio (green luciferase fused to IkBa over red control in OCI-Ly3 lymphoma cells), 4 h. In short, it runs like this: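 In this assay, an IκBα–CBG68 fusion accumulates when IKK-driven degradation is blocked; native CBR normalizes for cell number. OCI-Ly3 cells were treated 4 h with compound and doxycycline, then green and red light read after Chroma-Glo addition.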
Setting [1] is: measured here: control luc red channel unless noted.
Setting [2] is: measured here: IkB-luc green channel.
The mark [3] stands for this setting: measured here: control luc red channel.

This is one part of the list. Further columns of the screen follow, without active or inactive calls. The list favours compounds with an active or inconclusive main result. Potencies come from curve fits of mixed quality, noted in brackets.

Consider `Oc1cccc(-c2nc3ncccn3c2Nc2cccc(C(F)(F)F)c2)c1`, for which the AC50 under setting [1] was 12.6 µM [falling, partial curve].

In the case of `CCOc1ccccc1NC(=O)c1ccc2oc(=O)c(S(=O)(=O)c3ccc(F)cc3)cc2c1`, the AC50 runs as follows: under setting [2], 5.01 µM [rising, single point]; under setting [3], 10 µM [falling, partial curve].

For `Cc1nn(-c2ccccc2)c(C)c1C(=O)OC/C(O)=C(\C#N)c1nc2ccccc2[nH]1`, the AC50 under setting [1] is 15.8 µM [falling, partial curve].

On to `CN(C(=O)CSc1nc2ccc(NC(=O)c3ccc(F)cc3)cc2s1)c1ccccc1`, for which the AC50 under setting [1] was 10 µM [falling, partial curve].

As to `COc1ccc(NC(=O)CCS(=O)(=O)c2cc(Br)cc3c2N(C(C)=O)CC3)c(OC)c1`, the half-maximal activity concentration (AC50) under setting [1] was 15.8 µM [rising, partial curve, poor fit].

Regarding `O=c1c(-c2ccc(O)cc2)coc2cc(O)cc(O)c12`, the AC50 runs as follows: under setting [2], 0.002 µM [falling, full curve, poor fit]; under setting [3], 39.8 µM [falling, single point].

Consider `Cc1ccccc1CCNC(=O)c1cc2ccccn2n1`, for which, under setting [1], the AC50 was 20 µM [falling, partial curve].

For `CCOC(=O)Nc1ccc2c(c1)N(C(=O)CCN1CCOCC1)c1ccccc1S2`, the AC50 under setting [1] is 0.794 µM [rising, full curve].

For the compound `Cc1cccc(N2CCN(C(=O)Cn3nc(C)c4sc5ccccc5c4c3=O)CC2C)c1` (stereo unspecified), under setting [1], the AC50 is 6.31 µM [rising, full curve, poor fit].

`COc1ccc(-c2onc(C)c2C)cc1S(=O)(=O)NC1CCCCC1`: the AC50 under setting [1] was 12.6 µM [falling, single point].

Regarding `O=C(Nc1cccc(C(=O)OCc2cc(=O)n3nc(C4CC4)sc3n2)c1)c1ccc(F)cc1`, under setting [1], the half-maximal activity concentration (AC50) was 0.316 µM [falling, full curve].

With `CCOc1ccc(N(CC(=O)Nc2cccc(OC)c2)S(=O)(=O)c2c(C)noc2C)cc1`, the AC50 under setting [1] is 7.94 µM [falling, partial curve].

Regarding `CCc1ccc(NC(=O)CN2C(=O)C(=O)c3ccccc32)cc1`, under setting [1], the AC50 is 25.1 µM [falling, partial curve].

As to `COc1ccc(S(=O)(=O)Nc2ccc(O)c(Sc3nc4ccccc4s3)c2)cc1`, the AC50 under setting [1] is 39.8 µM [falling, single point].

For `CCCc1[nH]n(-c2nc3ccccc3s2)c(=O)c1C=NCC1CCCO1` (stereo unspecified), the AC50 under setting [1] is 15.8 µM [falling, partial curve].

For the compound `Cn1c(CNc2ccc(Cl)cc2)nc2ccccc21`, the AC50 under setting [1] was 15.8 µM [falling, single point].

Take `COc1cccc2[nH]c3c(N4CCN(Cc5ccc6c(c5)OCO6)CC4)ncnc3c12`: the half-maximal activity concentration (AC50) under setting [1] is 31.6 µM [falling, partial curve].

With `CCOCCCn1c(=N)c(S(=O)(=O)c2ccccc2)cc2c(=O)n3cc(C)ccc3nc21`, the AC50 under setting [1] is 2.51 µM [rising, partial curve].

With `Cc1ccc(-n2nc(C)c3c(C)c(CCC(=O)NCc4cccc(Cl)c4)c(C)nc32)cc1C`, the half-maximal activity concentration (AC50) under setting [1] was 15.8 µM [falling, partial curve].

On to `Cc1cccc(C(=O)Nc2cc3c(cc2N2CCCCC2)n(C)c(=O)n3C)c1`, for which the AC50 under setting [1] is 12.6 µM [falling, partial curve, poor fit].

With `O=C(CSc1c2c(nc3ccc(Cl)cc13)CCCC2)N1CCCCC1`, the concentration at half-maximal activity (AC50) under setting [1] is 15.8 µM [falling, partial curve].

Turning to `COc1ccc(C(=O)Oc2c(Sc3ccc(C)cc3)c(C)nn2C(C)(C)C)c(OC)c1`, the AC50 under setting [1] is 6.31 µM [falling, partial curve].

As to `O=C(NCc1cccnc1)c1ccc(COc2ccc3c(c2)CCC3)o1`, the AC50 under setting [1] was 10 µM [falling, partial curve].

Regarding `C=Cc1ccc(Cn2c(C(=O)O)c(CNCc3cc(OC)ccc3OC)c3ccc(C)cc32)cc1`, the AC50 under setting [1] was 25.1 µM [falling, single point].

For `CCC12CN3CC(C)(CN(C1)C3c1c(C)[nH]c3ccccc13)C2=O` (stereo unspecified), the AC50 under setting [1] was 25.1 µM [falling, single point].

In the case of `CCOC(=O)c1cc2c(ccn2C)n1CC(=O)N1CCC(Cc2ccccc2)CC1`, the AC50 under setting [1] is 25.1 µM [falling, partial curve].

With `COC(=O)C1=C(c2ccccc2)c2ccccc2S(=O)(=O)N1CC(=O)Nc1cc(C)ccc1C`, under setting [1], the AC50 is 25.1 µM [falling, single point].

For the compound `CCOC(=O)c1cccc(NC(=O)CCc2c(C)nc3c4cccnc4nn3c2C)c1`, under setting [1], the half-maximal activity concentration (AC50) is 39.8 µM [falling, single point].

In the case of `COc1ccccc1CN(Cc1cc2c(C)ccc(C)c2[nH]c1=O)Cc1nnnn1Cc1ccco1`, the AC50 under setting [1] is 10 µM [falling, partial curve].

For `CSc1ccc(Nc2nn(-c3ccc(OC(F)(F)F)cc3)nc2C(C)=O)cc1`, the AC50 under setting [1] is 20 µM [falling, single point].

On to `Cc1ccc2c(c1)N(CC(=O)NCc1cccc(Cl)c1)C(=O)c1cccnc1O2`, for which, under setting [1], the AC50 was 25.1 µM [falling, partial curve].

For `COc1ccccc1Cn1c(CNS(=O)(=O)c2c(C)cc(C)cc2C)nc2cccnc21`, under setting [1], the AC50 is 39.8 µM [falling, single point].

On to `Cc1cc(Nc2cccc(Cl)c2C)n2nc(Cc3ccccc3)nc2n1`, for which the AC50 under setting [1] is 25.1 µM [falling, single point].

In the case of `Cc1nn(-c2ccccc2)c(Cl)c1C(=O)N1CCN(c2ncnc3c2cnn3-c2ccccc2)CC1`, the AC50 under setting [1] is 3.16 µM [falling, full curve].

As to `O=C(NC1CC1)c1ccc(-c2nc3ccccc3s2)s1`, under setting [1], the AC50 was 20 µM [falling, single point].

In the case of `COc1cc(CN(CC2CCCO2)C(=O)c2ccccc2F)cc(OC)c1OC` (stereo unspecified), under setting [1], the AC50 is 15.8 µM [falling, single point].

Turning to `Cc1cc(C)c(NC(=O)Cn2c(=O)n(CCCCC(=O)NCc3ccccc3Cl)c(=O)c3ccccc32)c(C)c1`, the AC50 is, setting by setting: under setting [2], 31.6 µM [rising, single point]; under setting [3], 7.94 µM [rising, partial curve].

For `CCn1c(=O)cc(OCC(=O)N2CCN(c3cccc(C(F)(F)F)c3)CC2)c2ccccc21`, the AC50 under setting [1] is 10 µM [falling, partial curve].

Turning to `Cc1nc2sc(C(=O)NCc3ccc(Cl)cc3)c(NC(=O)c3ccccc3)c2c(C)c1C`, the half-maximal activity concentration (AC50) under setting [1] is 20 µM [rising, partial curve, poor fit].

On to `Cc1ccccc1NC(=O)c1nc(-c2ccncc2)no1`, for which, under setting [1], the AC50 was 2 µM [falling, full curve].

Regarding `CCC(C(=O)OCc1cc(=O)n2nc(CCOC)sc2n1)c1ccccc1` (stereo unspecified), under setting [1], the AC50 was 10 µM [falling, partial curve].

In the case of `Cc1ccc(-c2cn3c(n2)sc2cc(C(=O)N4CCCCC4)ccc23)cc1`, the concentration at half-maximal activity (AC50) under setting [1] was 10 µM [falling, partial curve].

In the case of `Cc1cc(C)c2c(=O)cc(C(=O)Nc3ccc(S(=O)(=O)Nc4nc(C)cc(C)n4)cc3)oc2c1`, the half-maximal activity concentration (AC50) under setting [1] is 39.8 µM [falling, single point].

On to `O=C(O)CCc1ccc(-c2cccs2)n1-c1ccc(C(=O)O)cc1`, for which the AC50 under setting [1] is 10 µM [falling, partial curve].

As to `CCOc1ccc(NC(=O)N2CCOc3ccccc32)cc1`, under setting [1], the AC50 is 3.98 µM [falling, full curve].

Turning to `O=C(C1CCN(S(=O)(=O)c2ccc(F)cc2)CC1)N1CC=C(c2ccccc2)CC1`, under setting [1], the AC50 was 25.1 µM [falling, partial curve].

As for `Cc1ccnc(NC(c2ccccc2F)c2ccc3cccnc3c2O)c1` (stereo unspecified), the AC50 under setting [1] is 5.01 µM [falling, full curve].

For the compound `CCCOc1ccccc1Cn1c(=O)sc2ccccc21`, the AC50 under setting [1] is 25.1 µM [falling, single point].

Regarding `COc1ccc(NC(=O)c2cc(C(C)C)on2)cc1OC`, under setting [1], the AC50 is 10 µM [falling, partial curve].

On to `Cc1ccc(N2CCn3c2nc2c3c(=O)n(CCc3ccccc3)c(=O)n2C)cc1C`, for which the concentration at half-maximal activity (AC50) under setting [1] was 20 µM [falling, partial curve].

As for `Cc1cc(C(=O)CSc2nncs2)c(C)n1-c1ccc2c(c1)OCO2`, the AC50 under setting [1] was 25.1 µM [falling, single point].

For the compound `CCOc1ccc(NC(=O)CN2C(=O)COc3ccc(S(=O)(=O)Nc4ccccc4)cc32)cc1`, under setting [1], the AC50 was 31.6 µM [falling, partial curve, poor fit].

Regarding `Cc1ccc(C(=O)c2coc3ccc(OCC(=O)O)cc23)cc1`, the AC50 under setting [1] is 15.8 µM [falling, partial curve].

On to `COc1ccccc1NC(=O)CSc1nnnn1-c1ccc2c(c1)OCO2`, for which the AC50 under setting [1] is 25.1 µM [falling, partial curve].

Regarding `COc1ccc(Cl)c(Cn2c(NCCN)nc3c2c(=O)n(C)c(=O)n3C)c1`, the AC50 under setting [1] was 0.1 µM [rising, full curve, poor fit].

For `Cn1cc(S(=O)(=O)Nc2ccc(Br)cc2F)c(=O)n(C)c1=O`, the AC50 is, setting by setting: under setting [2], 25.1 µM [falling, partial curve, poor fit]; under setting [3], 12.6 µM [falling, partial curve].

For the compound `COc1cccc(-c2nnc3n(Cc4ccc(F)cc4)c(=O)c4ccccc4n23)c1`, the AC50 under setting [1] was 25.1 µM [falling, single point].

Regarding `COc1cc(NC(=O)c2cccs2)c(C(=O)OCC(=O)NCc2ccco2)cc1OC`, under setting [1], the AC50 is 15.8 µM [falling, partial curve].

For `CC1=C(C(=O)Nc2ccc(C)cc2C)C(c2ccccc2C)n2ncnc2N1` (stereo unspecified), the AC50 under setting [1] was 2.51 µM [falling, full curve].

Consider `Cc1cccc(-c2nc3c(C#N)c[nH]n3c2NC2CCCCC2)c1`, for which the AC50 under setting [1] is 10 µM [falling, partial curve].

Regarding `COc1cc(NC(=O)c2noc3c2CCc2ccccc2-3)cc(OC)c1OC`, under setting [1], the AC50 was 10 µM [falling, partial curve].

Consider `Cc1nn(-c2ccc3nncn3n2)c(C)c1CCC(=O)Nc1ccc(OC(F)(F)F)cc1`, for which the half-maximal activity concentration (AC50) under setting [1] was 7.94 µM [rising, full curve, poor fit].
